Article PMC6862315
These are yes or no findings as the source states them, for the method shown. In cells and extracts the contact can be indirect. Some entries that bind do so weakly or less than the wild type. Where a sequence is shown, tags or fusion partners need not be part of it.

Biological target: Spike Activator 1 (SPK1), BiFC fusions NYN1-SPK1 and CYN1-SPK1 (Phalaenopsis aphrodite)
Assay: split reporter; BiFC with split YFP (residues 1-174 and 175-239) in orchid cells after ballistic bombardment; 24 h in the dark; confocal microscopy; NLS(VirD2)-mRFP as nuclear control

B1: Spike Activator 1 (SPK1), BiFC fusions NYN1-SPK1 and CYN1-SPK1 (protein, UniProt A0A5Q0QTC1 1-304)
chain: MALEAVVFHDLLSCNVKDMYSPWDIAGLVDEDKTLPFYDEWKASCSSLTGQGFQEPPDLGGATAISATAQKENKAPATCSESNGRKKRRRTKGLTNQEEAENQRMTHIAVERNRRKQMNEYLAVLRSLMPASYAQRGDQASIVGGAINYVKELQQIVQFLEVRKQLKHRGDNRVQDLKPLASFFSFPQYSLTDTAAAAAGGVDTVPANPSAVADIEVTIVESHASLKILCRRRPKQLLKLVVGLQSLRLSTLHLNATSFGAMVLFTFSLKVEEDCQLATVDEIATAVHQIVVRIHEEEGFYTSS
binding: binds
